According to PubChem BioAssay AID493014 (National Center for Advancing Translational Sciences (NCATS), 2011):
Where “and” joins values, the source holds several entries; their conditions need not be identical. Equal entries are not always repeated. The list shows a part of the results. These are further read-outs of the screen, such as a control signal, another cell line or another target. No call is given for them. The list favours compounds with an active or inconclusive main result. Potencies come from curve fits of mixed quality, noted in brackets.

Assay: qHTS Assay to Find Inhibitors of Chronic Active B-Cell Receptor Signaling
Conditions: ABC-DLBCL IkBa-CBG/CBR reporter, luminescence ratio (green luciferase fused to IkBa over red control in TMD8 lymphoma cells), 4 h
Outline: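 Doxycycline induced both beetle luciferases in TMD8 lymphoma cells; IKK-driven degradation limits the IkappaBalpha-fused green signal, while red luminescence normalises for cell number and nonspecific effects. Compounds tested up to 46 uM, 4 hrs.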

[1] = measured here: CBR red luminescence, cell number

| SMILES | AC50 [1] | AC50 (measured here: IkBa-CBG green luminescence) |
| --- | --- | --- |
| Cn1c(=O)c2cc3c(nc2n(C)c1=O)CC(c1ccccc1)CC3=O (stereo unspecified) | 6.31 µM [rising, single point] |  |
| COCc1cc(S(=O)c2ccc(Cl)cc2)nc(C)n1 (stereo unspecified) | 11.2 µM [falling, partial curve] |  |
| CCOc1ccc(N2C(=O)CC(Sc3nnnn3-c3ccccc3)C2=O)cc1 (stereo unspecified) | 17.8 µM [falling, partial curve, poor fit] |  |
| O=C(O)c1ccc(N/N=C/C=C/c2ccccc2[N+](=O)[O-])cc1 | 0.0251 µM [falling, full curve, poor fit] |  |
| CCN1CCN(c2ccc(S(=O)(=O)N3CCOCC3)cc2NC(=O)c2ccc(C)cc2C)CC1 | 0.146 µM [rising, full curve, poor fit] |  |
| COc1ccc(C(=O)Nc2cc(C)on2)cc1S(=O)(=O)N1CC(c2ccccc2)CC1=O (stereo unspecified) | 0.891 µM [falling, full curve, poor fit] |  |
| O=C(O)c1ccc(NCc2nc3ccccc3n2Cc2ccccc2)cc1 | 4.47 µM [falling, partial curve] |  |
| COCCCN(C(=O)CCOc1ccc(C(C)(C)C)cc1)c1c(N)n(Cc2ccccc2)c(=O)[nH]c1=O | 29.1 µM [falling, single point] |  |
| Cc1cc(C)cc(-c2nc(-c3ccncc3)no2)c1 | 23.1 µM [rising, partial curve, poor fit] |  |
| COc1ccc2[nH]c3c(c2c1)CCN1C(=O)N([C@@H](C)C(=O)NCc2ccccc2OC)C(=O)[C@]31C | 15.8 µM [falling, single point] |  |
| COCCN(C(=O)CSc1n[nH]c(-c2ccccc2)n1)c1c(N)n(Cc2ccccc2)c(=O)[nH]c1=O | 0.291 µM [rising, full curve, poor fit] |  |
| C=CCNC(=O)c1onc(CSc2ccc(F)cc2)c1C(=O)O | 15.8 µM [falling, partial curve] |  |
| CCCCN(C(=O)CSc1nnc(Nc2ccccc2)s1)c1c(N)n(CCC)c(=O)[nH]c1=O | 20 µM [rising, single point] |  |
| Nc1c(-c2cccc(Cl)c2)cnn1-c1cccc([N+](=O)[O-])c1 | 0.794 µM [rising, full curve, poor fit] |  |
| O=C(CN1CC(=O)Oc2ccccc21)OCC(=O)c1ccc(F)cc1 | 10 µM [falling, partial curve, poor fit] |  |
| CC(=O)Nc1ccccc1OCC(=O)NC(C)c1ccccc1 (stereo unspecified) | 1.64 µM [rising, full curve, poor fit] |  |
| Cc1nnc(SCC(=O)NCc2ccccc2)n1-c1ccccc1 | 3.26 µM [falling, single point] |  |
| CCCCN(C(=O)Nc1ccc(Cl)cc1)C1CCN(C(C)=O)CC1 | 5.8 µM [rising, full curve, poor fit] and 25.1 µM [rising, single point] |  |
| C=CCc1ccc(OCC(O)COc2ccc(CC=C)cc2OC)c(OC)c1 | 23.1 µM [falling, single point] |  |
| CCNc1nc(SCC(=O)OC)nc(N(C)C)n1 | 35.5 µM [falling, single point] |  |
| C=C(C)CNC(=S)NNC(=O)CCn1c2ccccc2c2ccccc21 |  | 20.6 µM [falling, partial curve, poor fit] |

3 neighbouring entries from above, for reference:

| SMILES | AC50 [1] | AC50 (measured here: IkBa-CBG green luminescence) |
| --- | --- | --- |
| C=CCNC(=O)c1onc(CSc2ccc(F)cc2)c1C(=O)O | 15.8 µM [falling, partial curve] |  |
| CCCCN(C(=O)CSc1nnc(Nc2ccccc2)s1)c1c(N)n(CCC)c(=O)[nH]c1=O | 20 µM [rising, single point] |  |
| Nc1c(-c2cccc(Cl)c2)cnn1-c1cccc([N+](=O)[O-])c1 | 0.794 µM [rising, full curve, poor fit] |  |

Going on with the list:

| SMILES | AC50 [1] | AC50 (measured here: IkBa-CBG green luminescence) |
| --- | --- | --- |
| Cc1ccc(NC(=S)NCCC(c2ccccc2)c2ccccc2)c(C)c1 | 29.1 µM [falling, single point] |  |
| Cc1ccc(OCC(=O)c2c(O)c3ccccc3oc2=O)cc1C | 0.447 µM [falling, full curve, poor fit] |  |
| COc1ccc(C(=O)O/N=C(/C)c2cccs2)cc1 | 10.3 µM [rising, partial curve, poor fit] |  |
| CC(C)Nc1nc2cccnc2s1 | 17.8 µM [rising, partial curve, poor fit] |  |
| COc1ccc(NC(=O)CCNS(=O)(=O)c2cc(Br)ccc2Br)cc1S(N)(=O)=O | 7.08 µM [rising, partial curve, poor fit] |  |
| Cc1nc(COC(=O)c2cc(O)c3ccccc3c2O)cs1 | 6.31 µM [falling, full curve] |  |
| O=[N+]([O-])c1ccc(/C=N/Nc2ccc3ccccc3c2)o1 | 1.84 µM [rising, partial curve, poor fit] |  |
| FC(F)(F)c1nc(Oc2ccccc2)c2ccccc2n1 | 29.1 µM [rising, single point] |  |
| COCCNC(=O)c1cc2c(-c3ccc(Cl)cc3)nn(C)c2s1 | 29.1 µM [falling, single point] |  |
| COC(=O)c1sc(-c2ccccc2)cc1NC(=O)c1ccc(OC)cc1 | 0.259 µM [rising, full curve, poor fit] |  |
| CCOC(=O)Nc1cccc(NC(=O)c2cc(OC)cc(OC)c2)c1 | 2.31 µM [falling, full curve] |  |
| CNc1ncnc2ccc(-c3c(C)noc3C)cc12 | 18.4 µM [rising, partial curve] |  |
| CC(=O)N1CC=C2C(C#N)=C(N)C(C#N)(C#N)C(CCc3ccccc3)C2C1 (stereo unspecified) | 6.51 µM [falling, partial curve, poor fit] |  |
| CSc1nc2ccc3nc(NC(=O)C4COc5ccccc5O4)sc3c2s1 (stereo unspecified) | 13 µM [falling, single point] |  |
| COc1ccccc1CN1CCN(S(=O)(=O)c2ccccc2)CC1 | 2.59 µM [falling, full curve, poor fit] |  |
| CCOC(=O)CSc1nc(N)c2c3c(sc2n1)CCCC3 | 18.4 µM [falling, single point] |  |
| COc1ccc(N2CCN(C(=O)COC(=O)c3ccc(Cl)nc3)CC2)cc1 | 3.66 µM [rising, full curve] |  |
| COc1cc(/C=N/Nc2nc3ccccc3o2)cc(OC)c1O | 29.1 µM [falling, single point] |  |
| COc1ccccc1CNC(=O)c1cc2c(=O)[nH]c3ccccc3c2n1C | 7.08 µM [falling, full curve] |  |
| OC(CNCc1ccccc1)(c1ccc(F)cc1)c1ccc(F)cc1 | 20.6 µM [falling, single point] |  |
